Data taken from patent US20240360107A1, “AN EIF4A INHIBITOR WITH A NOVEL MECHANISM OF ACTION” (ARIZONA BOARD OF REGENTS ON BEHALF OF THE UNIVERSITY OF …, priority 2021, published 2024).
Some results were stated once for a whole list of compounds, not compound by compound.

Amino acid sequences for entries named in this document (tags omitted).
UniProt P60842, whole entry: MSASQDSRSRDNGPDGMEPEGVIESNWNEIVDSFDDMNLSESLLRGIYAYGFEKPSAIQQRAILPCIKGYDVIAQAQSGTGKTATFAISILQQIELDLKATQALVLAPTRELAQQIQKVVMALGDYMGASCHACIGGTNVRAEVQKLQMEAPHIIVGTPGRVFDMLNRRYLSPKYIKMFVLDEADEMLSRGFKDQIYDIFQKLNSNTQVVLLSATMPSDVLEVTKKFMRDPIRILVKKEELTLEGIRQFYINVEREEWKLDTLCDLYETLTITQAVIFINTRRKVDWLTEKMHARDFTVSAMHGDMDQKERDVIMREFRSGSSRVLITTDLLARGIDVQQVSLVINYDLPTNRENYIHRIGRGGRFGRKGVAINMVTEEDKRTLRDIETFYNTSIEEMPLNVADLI

Each compound was assayed against eIF4A (Homo sapiens, UniProt P60842) (assay: RNA-stimulated malachite green ATPase assay). Details: comparison within the series.
Format: biochemical
Parameters: 6xHis with TEV protease site (N, cleaved yes); made in house; host or cells: E. coli BL21-CodonPlus
Method: Human eIF4A protein was produced recombinantly and a greater than 100,000-compound screen for inhibitors was completed using a malachite green ATPase assay (FIG. 11A). […] A stable mixture of yeast RNAs was added in an effort to improve this system and create a more biologically relevant eIF4A assay. eIF4A ATPase activity was accelerated without a statistically significant increase in the background signal in the presence of this RNA (FIG. 11B), and the new conditions gave excellent statistical parameters in a 384-well plate format (FIG. 11C).
ATPase assay. Recombinant WT or mutant eIF4A was added to a clear bottom 384 well plate (Greiner) in ATPase buffer (20 mM Tris pH 7.4, 80 mM KCl, 2.5 mM MgCl2, 1 mM DTT, 1% glycerol). Compounds were added and the plate was incubated at 37° C. for 20 min. ATP/RNA solution was added to afford a 20 μL per well reaction volume with 750 nM eIF4A, 250 μM ATP, and 0.25 mg/mL Yeast RNA (Sigma) for the initial screen and dose responses, and varying concentrations of ATP and RNA for the kinetic assays. The plate was incubated for 4 h at 37° C. for the initial screen and dose responses, and at seven time points (1 hour-7 hours) for kinetic assays. 0.04% v/v (final concentration) Tween-20 was added to a Malachite Green solution, and the Malachite Green (40 μL per well) was added. The solution was incubated for 5 minutes at room temperature and Absorbance at 660 nm was read on a SpectraMax iD5 plate reader (Molecular Devices).
With CCCCc1ccc(-c2ccc(-c3cc(C(=O)O)c4cc(C)ccc4n3)o2)cc1 [Compound 16, 2-(5-(4-butylphenyl)furan-2-yl)-6-methylquinoline-4-carboxylic acid] the “potency in the eIF4A ATPase assay (in words)” value (“potency” below) was “potency stayed low and relatively constant”.
In the case of CCCCc1ccc(-c2ccc(-c3cc(C(=O)O)c4cc(C(C)C)ccc4n3)o2)cc1 [Compound 18, 2-(5-(4-butylphenyl)furan-2-yl)-6-isopropylquinoline-4-carboxylic acid], the “potency” value is reported as “potency stayed low and relatively constant”.
With CCCOc1ccc(-c2ccc(-c3cc(C(=O)O)c4cc([N+](=O)[O-])ccc4n3)o2)cc1 [Compound 41, 6-nitro-2-(5-(4-propoxyphenyl)furan-2-yl)quinoline-4-carboxylic acid] the “potency” value was “drops in potency”.
CCCOc1cccc(-c2ccc(-c3cc(C(=O)O)c4cc([N+](=O)[O-])ccc4n3)o2)c1 [Compound 42, 6-nitro-2-(5-(3-propoxyphenyl)furan-2-yl)quinoline-4-carboxylic acid] was tested, and the “potency” value was “drops in potency”.
For CCCCc1ccc(-c2ccc(-c3cc(C(=O)O)c4cc(CC)ccc4n3)o2)cc1 [Compound 17, 2-(5-(4-butylphenyl)furan-2-yl)-6-ethylquinoline-4-carboxylic acid], the “potency” value was “potency stayed low and relatively constant”.
CCCOc1ccccc1-c1ccc(-c2cc(C(=O)O)c3cc([N+](=O)[O-])ccc3n2)o1 [Compound 43, 6-nitro-2-(5-(2-propoxyphenyl)furan-2-yl)quinoline-4-carboxylic acid] was tested, and the “potency” value was “drops in potency”.
With CCCCc1ccc(-c2ccc(-c3cc(C(=O)O)c4cc(-c5ccccc5)ccc4n3)o2)cc1 [Compound 19, 2-(5-(4-butylphenyl)furan-2-yl)-6-phenylquinoline-4-carboxylic acid] the “potency” value was “potency stayed low and relatively constant”.
With CCCCc1ccc(-c2ccc(-c3cc(C(=O)O)c4cc(C)cc(C)c4n3)o2)cc1 [Compound 20, 2-(5-(4-butylphenyl)furan-2-yl)-6,8-dimethylquinoline-4-carboxylic acid] the “potency” value was “potency stayed low and relatively constant”.
